The text below walks through data of PubChem BioAssay AID2685 (National Center for Advancing Translational Sciences (NCATS), 2010).

This is one part of the list. Further columns of the screen follow, without active or inactive calls. Most of these compounds were active or inconclusive in the main read-out, so they are no random draw. Words in brackets tell the shape of the fitted curve; partial curves, single points and poor fits give uncertain potencies.

The test is described as follows: qHTS Assay for Lipid Storage Modulators in Drosophila S3 Cells.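 On cell number change: cells counted by Cell Tracker Red CMTPX staining in the red channel.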 The conditions noted are these: BODIPY lipid droplet fluorescence, 18-24 h; for cell number change: measured here: cell count max response, cells fed with added oleic acid. In short, it runs like this: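 Drosophila S3 cells got compounds at several concentrations plus oleic acid (400 uM solution). Laser-scanning cytometry with 488 nm excitation read lipid droplets at 500-530 nm and cells at 575-640 nm. Percent activity was relative to 20 uM Triacsin C.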
On the technique in general: In qHTS, concentration-response curves come from the screen itself.

The mark [1] stands for this setting: measured here: lipid fluorescence (Fed channel) AC50, cells fed with added oleic acid.
Where [2] appears, read: measured here: cell number channel AC50, cells fed with added oleic acid.

Turning to `O=C(Nc1ccc(N2CCN(C(=O)c3ccccc3)CC2)cc1)c1cccnc1`, the cell number change amounted to 10.9%. Further, the AC50 (in general, the midpoint of the concentration-response curve, whichever way the signal moves) under setting [1] is 29.1 µM [falling, single point].

As to `CN(C)c1oc(/C=C/c2ccccc2)nc1C#N`, the cell number change is 2.4%. For the same molecule, the AC50 under setting [1] is 0.103 µM [rising, full curve, poor fit].

Turning to `Cn1c(CN2CCOCC2)nc2cc(NC(=O)c3ccc(Cl)cc3)ccc21`, the cell number change was -13.9%.

For `O=C(Nc1ncccc1Cl)c1ccc2c(c1)OCCO2`, the cell number change is -23.2%. For the same molecule, under setting [1], the AC50 was 0.651 µM [falling, single point].

Take `CCn1ncc(/C=N\NC(=O)c2cc(-c3ccc(C)cc3C)nc3ccccc23)c1C`: the cell number change came out at 28.2%. Also, the AC50 under setting [2] is 2.06 µM [rising, full curve, poor fit]. Further, under setting [1], the AC50 was 0.731 µM [rising, single point].

Consider `COc1ccc(S(=O)(=O)N2CCN(CC(=O)Nc3cc(Cl)ccc3Cl)CC2)cc1`, for which the cell number change came to 20.4%. For the same molecule, under setting [1], the half-maximal activity concentration (AC50) is 0.0116 µM [rising, full curve].

In the case of `CCCCCCN(C(=O)CCCCCN1C(=O)NC(c2ccc(-c3ccccc3)cc2)C(C(=O)OCc2ccccc2)=C1C)C(C(=O)NCCCC)c1ccc(OCC(=O)OC)cc1` (stereo unspecified), the cell number change was -0.852%. Besides, under setting [2], the AC50 is 5.8 µM [falling, single point]. Also, the AC50 under setting [1] was 8.2 µM [rising, partial curve].

In the case of `CC(C)CC1(C)NC(=O)N(CC(=O)N2C(C)CCCC2C)C1=O` (stereo unspecified), the cell number change was 24.9%. Besides, the concentration at half-maximal activity (AC50) under setting [2] is 0.82 µM [falling, full curve].

In the case of `CN1CCN(C(=O)c2ccc(CSc3ccc(Cl)cc3)cc2)CC1`, the cell number change was -17.3%. For the same molecule, under setting [1], the AC50 is 29.1 µM [falling, single point].

Consider `O=[N+]([O-])c1ccc(Cl)c(S(=O)(=O)NC2=NCCC2)c1`, for which the cell number change was 9%.

With `Cc1ncoc1C(=O)N1CCCC(C(=O)c2ccc(-c3ccccc3)c(F)c2)C1` (stereo unspecified), the cell number change is -25.6%. For the same molecule, the AC50 under setting [1] is 29.1 µM [falling, single point].

Consider `CC(C)(C)c1[nH]nc2c1C(Cc1ccccc1)C(C#N)=C(N)O2` (stereo unspecified), for which, under setting [1], the AC50 was 6.51 µM [falling, single point].

With `O=C(COC(=O)c1ccc([N+](=O)[O-])o1)Nc1cccc(S(=O)(=O)N2CCCCC2)c1`, the cell number change was -13%. Under setting [1], the AC50 was 0.58 µM [falling, single point].

Consider `CS(=O)(=O)N(CC(=O)Nc1ccc(F)cc1F)C1CCCCC1`, for which the cell number change came out at 10.4%.

For the molecule `CCOc1ccc(-n2nnc3c(=O)n(CC(=O)c4ccccc4)cnc32)cc1`, the cell number change stood at 16.1%. For the same molecule, the AC50 under setting [1] is 0.731 µM [rising, full curve].

As for `COC(=O)c1ccccc1S(=O)(=O)C(C)(C)C`, the cell number change came out at 12.2%. Further, under setting [1], the AC50 was 1.46 µM [rising, partial curve, poor fit].

For the molecule `O=c1c2ccccc2nnn1CSc1nnc(Nc2ccccc2)s1`, the cell number change is 0.209%. For the same molecule, the AC50 under setting [1] was 2.06 µM [rising, single point].

In the case of `c1ccc(C(Cc2nc(-c3cccnc3)no2)c2ccccc2)cc1`, the cell number change is 20%. Besides, the AC50 under setting [1] was 1.84 µM [rising, partial curve].

Take `N#Cc1ccc(NC(=O)COC(=O)CCNS(=O)(=O)c2ccccc2)cc1`: the cell number change was determined as 24.1%. The AC50 under setting [1] is 6.51 µM [falling, single point].

Consider `COc1ccccc1NC(=O)C(C)Sc1nnnn1C` (stereo unspecified), for which the cell number change is -9.14%.

With `O=C(Nc1nnc(-c2cccs2)o1)c1cc(-c2ccccc2)nc2ccccc12`, the cell number change came to 13.4%. For the same molecule, the half-maximal activity concentration (AC50) under setting [2] is 2.06 µM [rising, single point].

As for `O=[N+]([O-])c1ccc(N2CCN(S(=O)(=O)c3ccc(Cl)cc3)CC2)cc1NCc1cccnc1`, the AC50 runs as follows: under setting [2], 0.82 µM [rising, full curve]; under setting [1], 0.82 µM [rising, full curve, poor fit].

Take `O=C(NNc1cc(N2CCCC2)nc(N2CCCC2)n1)c1ccc([N+](=O)[O-])cc1`: the cell number change was -31.9%. The half-maximal activity concentration (AC50) under setting [2] is 23.1 µM [falling, single point]. Under setting [1], the AC50 is 23.1 µM [falling, single point].

As to `COc1cccc(NC(=O)COC(=O)CCCC2=NS(=O)(=O)c3ccccc3N2)c1`, the half-maximal activity concentration (AC50) under setting [1] was 29.1 µM [rising, single point].

Take `O=C(NCC1(c2ccccc2)CCCC1)c1ccco1`: the cell number change was 14.2%. In addition, the AC50 under setting [1] is 29.1 µM [rising, single point].

`COc1ccc(OC)c(N(C(=O)c2ccco2)C(C(=O)NC2CCCC2)c2cc(OC)c(OC)c(OC)c2)c1` (stereo unspecified): the cell number change was -1.25%.

`CCOC(=O)C1CCN(C(=S)NC2CCCC2)CC1`: the cell number change is 11.3%. Moreover, the AC50 under setting [2] is 0.92 µM [falling, full curve, poor fit].

On to `FC(F)(F)c1ccc(Cl)c(NC(=S)N/N=C/c2ccccc2C(F)(F)F)c1`, for which the cell number change came out at 1.1%. Further, the AC50 under setting [1] is 1.16 µM [rising, full curve, poor fit].

For `CCOC(=O)CC(NS(=O)(=O)c1ccc2[nH]cc(C(=O)O)c(=O)c2c1)c1ccc(OCC)c(OC)c1` (stereo unspecified), the cell number change worked out at 10%.

As to `Cn1nc(C(=O)Nc2cccc(S(=O)(=O)N3CCCC3)c2)c2ccccc2c1=O`, the cell number change was -12.4%. Further, the AC50 under setting [1] is 0.326 µM [rising, partial curve, poor fit].

On to `COc1ccc(N2C(=O)C(CC(=O)Nc3ccc(F)cc3)N(CCc3cccs3)C2=O)cc1` (stereo unspecified), for which the cell number change is 23.3%. Moreover, the concentration at half-maximal activity (AC50) under setting [1] is 29.1 µM [rising, single point].

On to `Cc1ccc(C(=O)CCC(=O)NN2C(=O)NC3(CCCCC3)C2=O)cc1`, for which the cell number change is -22.1%. Also, the concentration at half-maximal activity (AC50) under setting [1] was 0.58 µM [falling, full curve].

For `Cc1noc(C)c1C(=O)N1CCC(CO)(Cc2ccccc2)CC1`, the cell number change was -22.3%. Under setting [1], the AC50 was 16.4 µM [falling, partial curve, poor fit].

For `CC1CCCN(S(=O)(=O)c2ccc(NC(=O)Cn3nnc(-c4ccccc4F)n3)cc2)C1` (stereo unspecified), the cell number change is -13.3%. The AC50 under setting [1] was 32.6 µM [falling, single point].

With `CN(C(=O)COC(=O)C1CCN(S(=O)(=O)c2ccc3c(c2)OCCO3)CC1)c1ccccc1`, the cell number change was 25%. The AC50 under setting [1] was 29.1 µM [falling, partial curve, poor fit].

For the molecule `COc1ccc(/C=C/C(=O)N2CCC(c3ccccc3)C2)cc1` (stereo unspecified), the cell number change turned out to be 31.2%. The AC50 under setting [2] is 8.2 µM [rising, partial curve]. Besides, the AC50 under setting [1] is 2.31 µM [rising, single point].

Regarding `Cn1nccc1C(=O)Nc1cccc(S(=O)(=O)N2CCOCC2)c1`, the cell number change is -7.04%. The AC50 under setting [1] is 3.26 µM [falling, single point].

For `CC(=O)N(C)Cc1ccc(C(=O)CCl)cc1`, the cell number change worked out at 10.3%. Also, the AC50 under setting [2] is 3.66 µM [rising, single point].

As for `O=C(CN(C(=O)c1csnn1)c1ccccc1)NCc1ccc2c(c1)OCO2`, the cell number change was 13.2%. For the same molecule, the AC50 under setting [2] is 1.46 µM [rising, full curve].

For `CCCCN(C(=O)C1CC1)C1CCS(=O)(=O)C1` (stereo unspecified), the concentration at half-maximal activity (AC50) under setting [2] was 2.91 µM [falling, single point].

As for `CCC(C)NC(=O)C1CCN(S(=O)(=O)c2ccc(-n3cnnn3)cc2)CC1` (stereo unspecified), the cell number change was 15.8%. Further, the AC50 under setting [1] was 0.891 µM [rising, partial curve].

Regarding `Cn1c(=O)c2c(ncn2CC(=O)N2CCN(S(=O)(=O)c3ccc(F)cc3)CC2)n(C)c1=O`, the cell number change was 0.871%.

Regarding `COc1cc(C(=O)Nc2cccc(-n3cnnn3)c2)cc(OC)c1OC`, the cell number change was -53.3%. Also, the concentration at half-maximal activity (AC50) under setting [1] was 2.59 µM [rising, partial curve].

For the molecule `CC1CCN(C(=O)c2cc3c(ccc4ccccc43)o2)CC1`, under setting [1], the AC50 is 0.58 µM [falling, single point].

As for `Cc1cc2cc(CNC(=O)c3cc4ccccc4o3)ccc2n1C`, the cell number change was 20.6%. For the same molecule, the AC50 under setting [1] was 0.731 µM [rising, single point].

With `COc1ccccc1C#Cc1ccc2c(=O)c3ccccc3n(C)c2c1`, the cell number change is -18%. Under setting [1], the AC50 is 6.51 µM [falling, single point].

On to `N#CC1=C(N)C(C#N)(C#N)[C@H](c2ccsc2)[C@H]2COCC=C12`, for which the AC50 under setting [1] is 0.411 µM [falling, single point].

With `COc1ccc(-c2ccc(SCC(=O)N3CCOCC3)nn2)cc1`, the cell number change was -17.9%.

Consider `C/C(=N\NC(=O)c1ccc(Cl)c(S(=O)(=O)Nc2ccccc2Cl)c1)c1ccncc1`, for which the cell number change is -2.1%. For the same molecule, the AC50 under setting [2] is 3.26 µM [rising, single point]. Also, under setting [1], the AC50 is 0.0731 µM [rising, full curve, poor fit].

Regarding `N#Cc1ccccc1NC(=O)CN(Cc1ccccc1)Cc1ccccc1`, the cell number change was -3.42%.

For `COCCN(C(=O)c1cc(S(=O)(=O)N2CCCCC2)ccc1Cl)c1c(N)n(CC(C)C)c(=O)[nH]c1=O`, the cell number change is -17.4%. In addition, the AC50 under setting [1] is 29.1 µM [rising, single point].

Turning to `COc1cc(NC(=O)c2c(F)c(F)c(OC)c(F)c2F)ccc1NC(=O)c1cccs1`, the cell number change was -22.9%.

As for `COc1cccc(CNC(=O)C2CC(=O)N(C3CCCCCCC3)C2)c1` (stereo unspecified), the cell number change was 7.91%. Besides, the AC50 under setting [1] was 6.51 µM [rising, single point].

As to `CCCCN(C(=O)c1ccc(C)cc1)c1c(N)n(CCC)c(=O)[nH]c1=O`, the cell number change came out at 13.7%.

Take `O=C(CCC(=O)OCC(=O)c1ccc(-c2ccccc2)cc1)Nc1cccc2cccnc12`: the cell number change is -3.07%.

In the case of `O=C(COC(=O)c1ccc2c(c1)OCO2)Nc1ccccc1Cl`, the cell number change was -5.51%. In addition, the half-maximal activity concentration (AC50) under setting [1] is 29.1 µM [falling, single point].

As to `COc1ccccc1CNC(=O)c1cc2c(=O)[nH]c3ccccc3c2n1C`, the cell number change was -35.3%. Also, under setting [2], the AC50 was 0.00651 µM [falling, full curve, poor fit]. Besides, under setting [1], the AC50 was 16.4 µM [falling, single point].

`Cc1ccc2c(CC(=O)N3CCc4ccccc43)coc2c1`: the cell number change is 26.7%. Besides, the AC50 under setting [2] was 0.206 µM [rising, full curve, poor fit].

With `CC(C)c1ccccc1NC(=S)NC1CCCCC1`, the cell number change came out at 17.9%. Further, the concentration at half-maximal activity (AC50) under setting [1] is 5.01 µM [rising, full curve, poor fit].

In the case of `CCCN(CC(=O)Nc1ccc(F)c(F)c1F)C(=O)c1ccc(N2CCCC2=O)cc1`, the cell number change came to 38.4%. The AC50 under setting [2] was 16.4 µM [rising, partial curve, poor fit].

Regarding `Cc1ccc(S(=O)(=O)NC2CC(C)(C)NC(C)(C)C2)cc1`, the cell number change was 7.43%. For the same molecule, the concentration at half-maximal activity (AC50) under setting [1] was 25.9 µM [rising, partial curve].
